# Laboratory results reported in article PMC7819943, “Rice protein-binding microarrays: a tool to detect cis-acting elements near promoter regions in rice”.
# Protein sequences, listed by entry. Tags and fused reporters are not part of them.
# UniProt Q0JBA9, entry or part of it: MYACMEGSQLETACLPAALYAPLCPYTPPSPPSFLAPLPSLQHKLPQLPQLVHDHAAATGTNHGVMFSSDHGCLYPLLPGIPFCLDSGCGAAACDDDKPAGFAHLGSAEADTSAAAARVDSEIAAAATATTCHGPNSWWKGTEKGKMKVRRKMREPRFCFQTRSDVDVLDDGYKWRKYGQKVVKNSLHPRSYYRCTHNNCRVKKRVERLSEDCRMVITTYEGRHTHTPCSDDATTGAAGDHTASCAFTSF
# The list shows a part of the results.
# Target: OsWRKY34 (Oryza sativa, UniProt Q0JBA9 1-250)
# Test: protein-binding microarray (RPBM); PBS, 2% BSA, 51.3 ng/ul salmon testes DNA, 50 uM zinc acetate, 200 nM TF, 25 C, 1 h; high values mean tight binding
# Conditions: protein: recombinant; tags: N-terminal polyhistidine and DsRed monomer fusion (pET32a); label: CyDye5-dUTP incorporated in the synthesized complementary strand; 3' TTTTT single-stranded linker to array surface; dsDNA, one strand shown
# In short: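 The binding signal is fluorescence intensity per array feature (arbitrary units). Readings came from an Axon 4000B scanner after a washed, 2% BSA-blocked, double-stranded custom Agilent array had been incubated for 1 h at 25 °C with 200 nM protein and 50 µM zinc acetate. The protein was a Ni–NTA-purified transcription factor fused N-terminally to polyhistidine and DsRed, expressed in E. coli BL21-CodonPlus.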
row,Sequence,binding signal
1,GCATTGTTTTTATTTAGCCTGTTTAATATTATAGCCAACTCGGAGTCACCTAGTGCAG,8720 fluorescence intensity (a.u.)
2,TATTACTCCCTTCGTATTTTAATGTATGACGCCGTTGACTCGGAGTCACCTAGTGCAG,8820 fluorescence intensity (a.u.)
3,CACCAGCTTATACTCTCTCTCTCTCTCTCTCTCTCGTCGACGGAGTCACCTAGTGCAG,11000 fluorescence intensity (a.u.)
4,CTTTTTATTTCCTCTCTCTCCCTTATCCTCTCTTCTCTCACGGAGTCACCTAGTGCAG,8730 fluorescence intensity (a.u.)
5,GAAGCTAGTAGGTGTTAGTGGGAGGGAGGGGCCAAGAATGCGGAGTCACCTAGTGCAG,11500 fluorescence intensity (a.u.)
6,CCGCTGCTCCACCTGCGCCGCCGTCCTGTCGTCCCCGAAGCGGAGTCACCTAGTGCAG,8230 fluorescence intensity (a.u.)
7,TCTCCATCGTATTATAAGTCGTTTGACTTTTTTACTAGTCCGGAGTCACCTAGTGCAG,14700 fluorescence intensity (a.u.)
8,TACAGCATCCTCATCCTCTTTCTACTACTATTGATCTTCTCGGAGTCACCTAGTGCAG,11200 fluorescence intensity (a.u.)
9,AGTAATTTTTCTTCCGCTTAGCCAAATTGTCACCACTTAACGGAGTCACCTAGTGCAG,9040 fluorescence intensity (a.u.)
10,CACCATCAGCACGTAGAACTCCACCTTGCTCAACGCGTTGCGGAGTCACCTAGTGCAG,8610 fluorescence intensity (a.u.)
11,TCTCCATCCTACGGCCGCATTGTGATACCCTACTACGTCCCGGAGTCACCTAGTGCAG,10300 fluorescence intensity (a.u.)
12,TCCCTGGTATATGCACGCGCCCGCGTTCGTGCCGACGCGTCGGAGTCACCTAGTGCAG,12800 fluorescence intensity (a.u.)
13,CCCACGCGCCCACTTTGACCGACCCATCGATCGATCACGACGGAGTCACCTAGTGCAG,14300 fluorescence intensity (a.u.)
14,TTCCTTCTTATTTTTCTGGCCCCAAACCAGTGTTTAACAACGGAGTCACCTAGTGCAG,10500 fluorescence intensity (a.u.)
15,AGGGCCTATATGTTAGACTTAATCTTGTCGTTTGTGTTTTCGGAGTCACCTAGTGCAG,13200 fluorescence intensity (a.u.)
16,GTCCTGTCGAGCCCGACCCATCATCCACACGCGCCATTGTCGGAGTCACCTAGTGCAG,9680 fluorescence intensity (a.u.)
17,AAAAATATCTTCACCTATTATAACGCACATTTATTTTTTTCGGAGTCACCTAGTGCAG,9710 fluorescence intensity (a.u.)
18,GCGCTCACCGCCTTCTGTGCCGCCTCACTTGCGCCGGCGACGGAGTCACCTAGTGCAG,11500 fluorescence intensity (a.u.)
19,GTCAACCCGAGACCCCGAGACCATCGATCCCGCGCCGTCCCGGAGTCACCTAGTGCAG,9500 fluorescence intensity (a.u.)
20,AATATGACCGACTACTCTACCAGTCAATCCAATCCATCAACGGAGTCACCTAGTGCAG,8110 fluorescence intensity (a.u.)
21,GCCCTAGTGGAGGGCGGCATGGTCTATTTTTGTAATTTTTCGGAGTCACCTAGTGCAG,10000 fluorescence intensity (a.u.)
22,CCATTGTTCCGATTGCCGTCTCTTGTTGCATGTGCATTCCCGGAGTCACCTAGTGCAG,10200 fluorescence intensity (a.u.)
23,AGCTCGCGGATTGGGTGGTGGTGGTGGTGGAGCCCGGAGTCGGAGTCACCTAGTGCAG,9240 fluorescence intensity (a.u.)
24,CTATTGTCTTGTTCATCTGTTTTTCTTGTTAACAACCATTCGGAGTCACCTAGTGCAG,13000 fluorescence intensity (a.u.)
25,CACCACCGTTTTGACTCCTCTCAGACACACAAGCTGCAGGCGGAGTCACCTAGTGCAG,8160 fluorescence intensity (a.u.)
26,ATGTTTCACTCATTGGTCAACTAGAACATTTGACCAACCACGGAGTCACCTAGTGCAG,15000 fluorescence intensity (a.u.)
27,ACATCGTCCCATCAACGCTGCGACGCCACCATTTAATTCCCGGAGTCACCTAGTGCAG,12500 fluorescence intensity (a.u.)

# As entered above:
# For binding signal, AGTAATTTTTCTTCCGCTTAGCCAAATTGTCACCACTTAACGGAGTCACCTAGTGCAG has the entry 9040 fluorescence intensity (a.u.)
# For binding signal, CCGCTGCTCCACCTGCGCCGCCGTCCTGTCGTCCCCGAAGCGGAGTCACCTAGTGCAG has the entry 8230 fluorescence intensity (a.u.)

# (list continues)

row,Sequence,binding signal
1,GTGTCTACATGAACATTTTTTTTATTTATTTGCGTGAAAACGGAGTCACCTAGTGCAG,8070 fluorescence intensity (a.u.)
2,AGGTGCCATGAGCTTCTACGTTTTAATTGCATTCCCCGTACGGAGTCACCTAGTGCAG,9720 fluorescence intensity (a.u.)
3,TTGCCTGTGTTGGTGTATGTACGCCGTGTTTAGTTTATTGCGGAGTCACCTAGTGCAG,8820 fluorescence intensity (a.u.)
4,CCTAACATGGCCTGGCTACTTCTTCCACCATTCAACAGCACGGAGTCACCTAGTGCAG,9600 fluorescence intensity (a.u.)
5,ATTATTGCTTTTGAGTCGGACTTTGTTTTTTCGTTTTTACCGGAGTCACCTAGTGCAG,10600 fluorescence intensity (a.u.)
6,TCCACTGTCACAATCCTGAACCTGCCATGACATATCAGCTCGGAGTCACCTAGTGCAG,10000 fluorescence intensity (a.u.)
7,AACGGCCGACAGCCCTCTGCCCCAGAAGCCAACAATAACGCGGAGTCACCTAGTGCAG,8750 fluorescence intensity (a.u.)
8,TTTCTATTGCATTTTATCTCATCGTATCACATTCTGTTCTCGGAGTCACCTAGTGCAG,8080 fluorescence intensity (a.u.)
9,AATAATTTCATACTATTGGGAGTTGGGACCTTATCTTGCACGGAGTCACCTAGTGCAG,9350 fluorescence intensity (a.u.)
10,AACACACACACACACACACACACACACATTCAGACAGAACCGGAGTCACCTAGTGCAG,11400 fluorescence intensity (a.u.)
11,CGTTTTACCTTCCACAACCACAATCCACAGCCTTTGTACACGGAGTCACCTAGTGCAG,8880 fluorescence intensity (a.u.)
12,ACACCGATCTTCGCGACATGGACTACCTACCACCCTTTCTCGGAGTCACCTAGTGCAG,10100 fluorescence intensity (a.u.)
13,CCCCTCGCCGCCCTCTCTCTCACAGTCTCACGCATCCCATCGGAGTCACCTAGTGCAG,8440 fluorescence intensity (a.u.)
14,GTGGTTTACTTTCTCATCCTAGGTAGCTTGTCTCCATTGTCGGAGTCACCTAGTGCAG,8950 fluorescence intensity (a.u.)
15,CACCTGCGCCCACCGCCTCGCTCGATCGCCACCGCACCACCGGAGTCACCTAGTGCAG,8150 fluorescence intensity (a.u.)
16,TTTTTTCAGTTGAATTTATCCCTTTTTTCCCTTAATTCGTCGGAGTCACCTAGTGCAG,10900 fluorescence intensity (a.u.)
17,TGTTCCTCTACTCGATTACGATGTTCCTGGAGTAATTTTCCGGAGTCACCTAGTGCAG,8540 fluorescence intensity (a.u.)
18,GTGATCTGAATTCCTTTTTTTTTTTCCATCTCGTTTGCTGCGGAGTCACCTAGTGCAG,9560 fluorescence intensity (a.u.)
19,CTCACGCATGCAAGTGCATGTGCACACTCACACCAAGTAACGGAGTCACCTAGTGCAG,8470 fluorescence intensity (a.u.)
20,TAATTCTCTCATTCCTCTCTCTGTCTCTCTCATCGGTTCTCGGAGTCACCTAGTGCAG,11500 fluorescence intensity (a.u.)
21,TGACTTTCTTACCATGCACTTACCTTACCATGTACTAGTACGGAGTCACCTAGTGCAG,9420 fluorescence intensity (a.u.)
22,TTCCGCAAAACCTGACTTCTTTACTTGTTTATGCAGATGACGGAGTCACCTAGTGCAG,8140 fluorescence intensity (a.u.)
23,AGTAAGTGTGCTTTGCTCGTAATACTCCTTTCTTTTTCTGCGGAGTCACCTAGTGCAG,8090 fluorescence intensity (a.u.)
24,CCCGGTCAGTCAAACTTCCGGATCGTGTCCTGTTTGACTCCGGAGTCACCTAGTGCAG,10700 fluorescence intensity (a.u.)
25,TACTACTCCCTCCGTTTCAAAATGTTTGACACCGTTGACTCGGAGTCACCTAGTGCAG,13100 fluorescence intensity (a.u.)
26,CCACCACCACTCCATCACAGTCTGCTCATTAGCTCGAGACCGGAGTCACCTAGTGCAG,8340 fluorescence intensity (a.u.)
27,CTTGGCTGTTCTTGGGTGGGTGAGGTGGGGCGGTCGGATCCGGAGTCACCTAGTGCAG,17100 fluorescence intensity (a.u.)
